Laboratory results taken from article PMC12136456.
Results are given in words; binding and its absence hold for the method and conditions named. Binding seen in cells or lysates may run through a third protein. A yes stands for co-enrichment or nearness to the bait. Other partners may have been found.

Protein sequences, listed by entry. Tags and fused reporters are not part of them.
UniProt P26599: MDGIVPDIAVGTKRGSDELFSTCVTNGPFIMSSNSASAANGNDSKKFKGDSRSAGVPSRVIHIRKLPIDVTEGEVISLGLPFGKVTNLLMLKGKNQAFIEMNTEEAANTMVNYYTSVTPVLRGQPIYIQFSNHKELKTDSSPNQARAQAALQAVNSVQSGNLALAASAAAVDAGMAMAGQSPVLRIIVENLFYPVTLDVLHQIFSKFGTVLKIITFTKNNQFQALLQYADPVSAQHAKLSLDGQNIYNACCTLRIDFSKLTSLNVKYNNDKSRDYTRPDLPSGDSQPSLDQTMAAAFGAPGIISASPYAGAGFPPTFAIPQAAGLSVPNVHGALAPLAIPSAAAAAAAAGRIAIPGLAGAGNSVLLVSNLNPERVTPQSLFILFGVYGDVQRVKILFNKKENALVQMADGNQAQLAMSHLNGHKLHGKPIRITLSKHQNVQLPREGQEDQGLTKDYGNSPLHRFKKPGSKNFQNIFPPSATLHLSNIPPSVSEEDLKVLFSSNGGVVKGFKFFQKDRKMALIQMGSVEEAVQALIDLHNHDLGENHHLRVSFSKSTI
UniProt Q9UKA9: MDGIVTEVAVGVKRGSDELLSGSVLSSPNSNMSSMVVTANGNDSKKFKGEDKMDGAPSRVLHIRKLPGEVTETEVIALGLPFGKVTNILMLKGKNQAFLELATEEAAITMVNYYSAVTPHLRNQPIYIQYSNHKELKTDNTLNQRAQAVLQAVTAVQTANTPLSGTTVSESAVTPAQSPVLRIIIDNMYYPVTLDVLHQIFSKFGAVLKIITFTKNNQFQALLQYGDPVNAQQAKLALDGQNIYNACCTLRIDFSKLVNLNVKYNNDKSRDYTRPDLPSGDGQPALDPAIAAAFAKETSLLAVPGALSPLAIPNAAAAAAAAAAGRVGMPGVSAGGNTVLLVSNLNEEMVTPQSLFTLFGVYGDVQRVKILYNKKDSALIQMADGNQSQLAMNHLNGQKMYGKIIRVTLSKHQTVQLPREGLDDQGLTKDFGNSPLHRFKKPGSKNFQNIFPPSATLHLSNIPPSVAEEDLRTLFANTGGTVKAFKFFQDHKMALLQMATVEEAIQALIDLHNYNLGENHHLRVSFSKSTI

B1: CSTF2T (protein, UniProt Q9H0L4 1-616)
chain: MSSLAVRDPAMDRSLRSVFVGNIPYEATEEQLKDIFSEVGSVVSFRLVYDRETGKPKGYGFCEYQDQETALSAMRNLNGREFSGRALRVDNAASEKNKEELKSLGPAAPIIDSPYGDPIDPEDAPESITRAVASLPPEQMFELMKQMKLCVQNSHQEARNMLLQNPQLAYALLQAQVVMRIMDPEIALKILHRKIHVTPLIPGKSQSVSVSGPGPGPGPGLCPGPNVLLNQQNPPAPQPQHLARRPVKDIPPLMQTPIQGGIPAPGPIPAAVPGAGPGSLTPGGAMQPQLGMPGVGPVPLERGQVQMSDPRAPIPRGPVTPGGLPPRGLLGDAPNDPRGGTLLSVTGEVEPRGYLGPPHQGPPMHHASGHDTRGPSSHEMRGGPLGDPRLLIGEPRGPMIDQRGLPMDGRGGRDSRAMETRAMETEVLETRVMERRGMETCAMETRGMEARGMDARGLEMRGPVPSSRGPMTGGIQGPGPINIGAGGPPQGPRQVPGISGVGNPGAGMQGTGIQGTGMQGAGIQGGGMQGAGIQGVSIQGGGIQGGGIQGASKQGGSQPSSFSPGQSQVTPQDQEKAALIMQVLQLTADQIAMLPPEQRQSILILKEQIQKSTGAS
B2: NONO (protein, UniProt Q15233 1-471)
chain: MQSNKTFNLEKQNHTPRKHHQHHHQQQHHQQQQQQPPPPPIPANGQQASSQNEGLTIDLKNFRKPGEKTFTQRSRLFVGNLPPDITEEEMRKLFEKYGKAGEVFIHKDKGFGFIRLETRTLAEIAKVELDNMPLRGKQLRVRFACHSASLTVRNLPQYVSNELLEEAFSVFGQVERAVVIVDDRGRPSGKGIVEFSGKPAARKALDRCSEGSFLLTTFPRPVTVEPMDQLDDEEGLPEKLVIKNQQFHKEREQPPRFAQPGSFEYEYAMRWKALIEMEKQQQDQVDRNIKEAREKLEMEMEAARHEHQVMLMRQDLMRRQEELRRMEELHNQEVQKRKQLELRQEEERRRREEEMRRQQEEMMRRQQEGFKGTFPDAREQEIRMGQMAMGGAMGINNRGAMPPAPVPAGTPAPPGPATMMPDGTLGLTPPTTERFGQAATMEGIGAIGGTPPAFNRAAPGAEFAPNKRRRY
B3: MEIS2 (protein, UniProt O14770 1-477)
chain: MAQRYDELPHYGGMDGVGVPASMYGDPHAPRPIPPVHHLNHGPPLHATQHYGAHAPHPNVMPASMGSAVNDALKRDKDAIYGHPLFPLLALVFEKCELATCTPREPGVAGGDVCSSDSFNEDIAVFAKQVRAEKPLFSSNPELDNLMIQAIQVLRFHLLELEKVHELCDNFCHRYISCLKGKMPIDLVIDERDGSSKSDHEELSGSSTNLADHNPSSWRDHDDATSTHSAGTPGPSSGGHASQSGDNSSEQGDGLDNSVASPGTGDDDDPDKDKKRQKKRGIFPKVATNIMRAWLFQHLTHPYPSEEQKKQLAQDTGLTILQVNNWFINARRRIVQPMIDQSNRAGFLLDPSVSQGAAYSPEGQPMGSFVLDGQQHMGIRPAGLQSMPGDYVSQGGPMGMSMAQPSYTPPQMTPHPTQLRHGPPMHSYLPSHPHHPAMMMHGGPPTHPGMTMSAQSPTMLNSVDPNVGGQVMDIHAQ
B4: TBL1Y (protein, UniProt Q9BQ87 1-522)
chain: MSITSDEVNFLVYRYLQESGFSHSAFTFGIESHISQSNINGTLVPPSALISILQKGLQYVEAEISINKDGTVFDSRPIESLSLIVAVIPDVVQMRQQAFGEKLTQQQASAAATEASAMAKAATMTPAAISQQNPPKNREATVNGEENGAHEINNHSKPMEIDGDVEIPPNKATVLRGHESEVFICAWNPVSDLLASGSGDSTARIWNLNENSNGGSTQLVLRHCIREGGHDVPSNKDVTSLDWNSDGTLLAMGSYDGFARIWTENGNLASTLGQHKGPIFALKWNKKGNYVLSAGVDKTTIIWDAHTGEAKQQFPFHSAPALDVDWQNNMTFASCSTDMCIHVCRLGCDHPVKTFQGHTNEVNAIKWDPSGMLLASCSDDMTLKIWSMKQDACVHDLQAHSKEIYTIKWSPTGPATSNPNSSIMLASASFDSTVRLWDVEQGVCTHTLMKHQEPVYSVAFSPDGKYLASGSFDKYVHIWNTQSGSLVHSYQGTGGIFEVCWNARGDKVGASASDGSVCVLDL
B5: Tudor- domain containing protein TDRD5 (protein, UniProt Q8NAT2 1-981)
chain: MSEQERIQECLRKEIRSLLISTKDGLSPQELEKEYLLMVGNHLPLRILGYRSTMELVLDMPDVVRVCPGAGGTVILKAIPDESTKGIASLVAKQRSSHKLRNSMHKGRPSIYSGPRSHRRVPYRGRVAPILPAVVKSELKDLLALSPVLLSDFEKAFAKRFGRSFQYMQYGFLSMFEVLNAASDVISVEQTRAGSLLMLKKSVTEEKPRGCPAGKIFTQPFRMKQGSYSTGFPVAKPCFSQPTSNMEPPKQIMSMEKTSKLNVVETSRLNHTEKLNQLENTFKSVIAQIGPGGTISSELKHKIKFVVSKFPEGLFISKLLGEYEVIFKEQLSPKKLGFLNVTELVGALSDILHVEFRKGHQDLLVFDADKKPLPPVQSDKKIEAKACVSSPPRNSLSTAAVKETVWNCPSKKQKEPQQKICKKPNLVVKPLQLQVETNKSELNLAMANHDIPPDAVPNKKLCRLPPLDTSSLIGVFVEYIISPSQFYIRIYSRDSSELLEDMMIEMRRCYSNQLVSDRYVMPECFIQPGHLCCVRISEDKWWYRVIIHRVLEKQEVEVFYPDFGNIGIVQKSSLRFLKCCYTKLPAQAIPCSLAWVRPVEEHWTSKAILQFQKLCGLKPLVGVVDEYVDGILNIFLCDTSSNEDVYFHHVLRTEGHAIVCRENISSKGFSELNPLALYTTSSGGPEDIVLTELGYPSQQHYFNEDRKISPQSKESELRILDEIPTGMPCLESVTIGDDIWDENWLPLQAKMGKGGDAASHLFTASLGGKNQYSSCKEMPQKDWCFSTPKDTWDDSWQPSGLVNGTKVEVHKPEVLGAQEKNTGTNRTQKQLDINGSSDSSTLPKLEEFCTSLTQSEQSADGSQSEPNNSQTQPKQIQLSTAAPCSTTAVDDSAEKPSGSVESSPEILKNEDFSSSRAITLYKDKRQESVDQLSLILSYECQISQKLYIPRSTATAALGAAARLATSRSLLHWYPSVKRMEA
B6: FAM50A (protein, UniProt Q14320 1-339)
chain: MAQYKGAASEAGRAMHLMKKREKQREQMEQMKQRIAEENIMKSNIDKKFSAHYDAVEAELKSSTVGLVTLNDMKAKQEALVKEREKQLAKKEQSKELQMKLEKLREKERKKEAKRKISSLSFTLEEEEEGGEEEEEAAMYEEEMEREEITTKKRKLGKNPDVDTSFLPDRDREEEENRLREELRQEWEAKQEKIKSEEIEITFSYWDGSGHRRTVKMRKGNTMQQFLQKALEILRKDFSELRSAGVEQLMYIKEDLIIPHHHSFYDFIVTKARGKSGPLFNFDVHDDVRLLSDATVEKDESHAGKVVLRSWYEKNKHIFPASRWEPYDPEKKWDKYTIR
B7: elongation factor EEF1B2 (protein, UniProt P24534 1-225)
chain: MGFGDLKSPAGLQVLNDYLADKSYIEGYVPSQADVAVFEAVSSPPPADLCHALRWYNHIKSYEKEKASLPGVKKALGKYGPADVEDTTGSGATDSKDDDDIDLFGSDDEEESEEAKRLREERLAQYESKKAKKPALVAKSSILLDVKPWDDETDMAKLEECVRSIQADGLVWGSSKLVPVGYGIKKLQIQCVVEDDKVGTDMLEEQITAFEDYVQSMDVAAFNKI
B8: LARP7 (protein, UniProt Q4G0J3 1-582)
chain: METESGNQEKVMEEESTEKKKEVEKKKRSRVKQVLADIAKQVDFWFGDANLHKDRFLREQIEKSRDGYVDISLLVSFNKMKKLTTDGKLIARALRSSAVVELDLEGTRIRRKKPLGERPKDEDERTVYVELLPKNVNHSWIERVFGKCGNVVYISIPHYKSTGDPKGFAFVEFETKEQAAKAIEFLNNPPEEAPRKPGIFPKTVKNKPIPALRVVEEKKKKKKKKGRMKKEDNIQAKEENMDTSNTSISKMKRSRPTSEGSDIESTEPQKQCSKKKKKRDRVEASSLPEVRTGKRKRSSSEDAESLAPRSKVKKIIQKDIIKEASEASKENRDIEISTEEEKDTGDLKDSSLLKTKRKHKKKHKERHKMGEEVIPLRVLSKSEWMDLKKEYLALQKASMASLKKTISQIKSESEMETDSGVPQNTGMKNEKTANREECRTQEKVNATGPQFVSGVIVKIISTEPLPGRKQVRDTLAAISEVLYVDLLEGDTECHARFKTPEDAQAVINAYTEINKKHCWKLEILSGDHEQRYWQKILVDRQAKLNQPREKKRGTEKLITKAEKIRLAKTQQASKHIRFSEYD
B9: CPSF7 (protein, UniProt Q8N684 1-471)
chain: MSEGVDLIDIYADEEFNQDPEFNNTDQIDLYDDVLTATSQPSDDRSSSTEPPPPVRQEPSPKPNNKTPAILYTYSGLRNRRAAVYVGSFSWWTTDQQLIQVIRSIGVYDVVELKFAENRANGQSKGYAEVVVASENSVHKLLELLPGKVLNGEKVDVRPATRQNLSQFEAQARKRECVRVPRGGIPPRAHSRDSSDSADGRATPSENLVPSSARVDKPPSVLPYFNRPPSALPLMGLPPPPIPPPPPLSSSFGVPPPPPGIHYQHLMPPPPRLPPHLAVPPPGAIPPALHLNPAFFPPPNATVGPPPDTYMKASAPYNHHGSRDSGPPPSTVSEAEFEDIMKRNRAISSSAISKAVSGASAGDYSDAIETLLTAIAVIKQSRVANDERCRVLISSLKDCLHGIEAKSYSVGASGSSSRKRHRSRERSPSRSRESSRRHRDLLHNEDRHDDYFQERNREHERHRDRERDRHH

target: Polypyrimidine Tract Binding Protein 1, His-tagged (UniProt P26599); experiment: affinity purification with mass spectrometry; 48 ug His-tagged PTBP in a 200 ul splicing reaction (2.2 mM MgCl2, 0.4 mM ATP, 20 mM creatine phosphate) with WERI retinoblastoma nuclear extract, 30 C 90 min; HisPur Ni-NTA magnetic resin overnight at 4 C; washes with 150 mM NaCl, 30 mM imidazole; eluted with 300 mM imidazole; proteins of the Buffer DG and WERI only controls removed from the lists; the extract includes RNA transcripts, so a protein may be bound directly or through RNA; only the target purified

Row | binding | Binder
1 | binds | B1
2 | binds | B2
3 | binds | B3

target: Polypyrimidine Tract Binding Protein 1, His-tagged (UniProt P26599); experiment: as above; remark: another data set of the same source

Row | binding | Binder
4 | binds | B4
5 | binds | B5
6 | binds | B6
7 | binds | B7
8 | binds | B8
9 | binds | B9

target: Polypyrimidine Tract Binding Protein 2, His-tagged (UniProt Q9UKA9); experiment: as above

Row | binding | Binder
10 | binds | B5
11 | binds | B6
12 | binds | B8
13 | binds | B9
